# According to patent US20230133716 (published 2023):
# Assay: general procedure: Fmoc solid-phase peptide synthesis; 2-CTC resin (1.10 mmol/g) for protected fragments; Wang resin for semaglutide; DIC/HOBT; TBTU/HOBT/DIEA
substance,measurement,setting,value
semaglutide,step yield,"purification step, purification yield",64.20%
same,final HPLC purity,"whole synthesis, HPLC",99.8%
